Experimental findings from publication PMC11700292, “Specific inhibition of fibroblast growth factor receptor 1 signaling by a DNA aptamer” are described below.

Construct, isoform or probe ends are uncertain for at least one entry.

The subject of the data set is FGFR1b extracellular domain-Fc + FGF1. Briefly: BLI. The following applies: preformed FGF1:FGFR1b complex, 250 nM each; BLI (Octet K2, protein A sensor, FGFR-Fc 5 ug/mL), VZ23 31.25-500 nM in PBS (8.1 mM Na2HPO4, 1.5 mM NaH2PO4, 137 mM NaCl); recombinant protein; protein details: IgG1 Fc fusion; folded or branched DNA.

As to “GGGATACAGGGCTTTGTCTATGGTGTGGATGGCGGATACC [VZ23]”, the binding result was “binds”.
